According to PubChem BioAssay AID330 (DTP/NCI, 2004):
The list is a part of this screen's results and no random one: it is rich in T/C values a quarter to a half above the control, in often repeated tests (any T/C) and in doses without a T/C. Other doses and runs of a compound stand elsewhere. T/C gives the treated animals as a percentage of the vehicle group. Some entries give survivors of the animals treated and no T/C: the source files T/C as zero there, which appears to mark a toxic dose or a test without result, not a measured value. Some doses without a T/C left all or most animals alive at the check, yet need not have been tolerated: the source hardly ever lists a survival T/C far under the control, and the zero likely stands for such cases as well. Counts of survivors are from the toxicity check (mostly the fifth day) where no day follows; animals may have died later. Schedules are NCI's codes, read here as Q, the interval in days (D) or hours (H), X, the number of doses. Some doses were run more than once; the values are given in rising order. Where survival is the endpoint, this PubChem deposit counts one and a half times the control or more as active, and values a quarter to a half above the control carry no call in these data; other NCI protocols may use other cut-offs.

Tested on: P388 leukemia ip, CD2F1 mice, survival T/C
Assay: NCI In Vivo Anticancer Drug Screen. Data for tumor model P388 Leukemia (intraperitoneal) in CD2F1 (CDF1) mice
Details: T/C endpoint: median survival time, higher T/C = longer survival
[1] = dose: 12.5 mg/kg/injection, schedule: Q01DX005 (ip), vehicle: Klucel (hydroxypropylcellulose) (HPC)
[2] = dose: 25.0 mg/kg/injection, schedule: Q01DX005 (ip), vehicle: Klucel (hydroxypropylcellulose) (HPC)
[3] = dose: 50.0 mg/kg/injection, schedule: Q01DX005 (ip), vehicle: Klucel (hydroxypropylcellulose) (HPC)
[4] = dose: 100.0 mg/kg/injection, schedule: Q01DX005 (ip), vehicle: Klucel (hydroxypropylcellulose) (HPC)
[5] = dose: 200.0 mg/kg/injection, schedule: Q01DX005 (ip), vehicle: Klucel (hydroxypropylcellulose) (HPC)
[6] = dose: 240.0 mg/kg/injection, schedule: Q01DX005 (ip), vehicle: saline with Tween-80
[7] = dose: 12.5 mg/kg/injection, schedule: Q04DX003 (ip), vehicle: saline
[8] = dose: 0.5 mg/kg/injection, schedule: Q01DX005 (ip), vehicle: saline + alcohol
[9] = dose: 120.0 mg/kg/injection, schedule: Q01DX005 (ip), vehicle: saline
[10] = dose: 240.0 mg/kg/injection, schedule: Q01DX005 (ip), vehicle: saline

CN(C)CCCN1c2ccccc2Sc2ccccc21
survivor count (dose: 75.0 mg/kg/injection, schedule: Q01DX009 (ip), vehicle: saline with Tween-80): 3 of 6 | T/C (dose: 75.0 mg/kg/injection, schedule: Q01DX009 (ip), vehicle: saline): 127 % of control | survivor count (dose: 150.0 mg/kg/injection, schedule: Q01DX009 (ip), vehicle: saline with Tween-80): 3 of 6

COC(=O)[CH2][Sn]([CH2]C(=O)OC)([CH]1CCCCC1)[CH]1CCCCC1
survivor count [1]: 6 of 6 | survivor count [2]: 2 of 6 | survivor count [3]: 0 of 6 | survivor count [4]: 0 of 6 | survivor count [5]: 0 of 6

Oc1cc(CN2CCCC2)c(O)cc1CN1CCCC1
survivor count (dose: 200.0 mg/kg/injection, schedule: Q01DX009 (ip), vehicle: saline with Tween-80): 0 of 6 and 1 of 6

COC(=O)C(=O)c1c(C(=O)OC)nc2nnc(N)n2c1-c1cccc([N+](=O)[O-])c1
survivor count (dose: 60.0 mg/kg/injection, schedule: Q01DX005 (ip), vehicle: saline with Tween-80): 6 of 6 | survivor count [6]: 6 of 6

C[CH2][Sn]1([CH2]C)[O]C(=O)CC(=O)[O]1
T/C (dose: 6.25 mg/kg/injection, schedule: Q04DX003 (ip), vehicle: saline): 140 % of control | T/C [7]: 127 % of control | survivor count [7]: 3 of 6 | survivor count (dose: 25.0 mg/kg/injection, schedule: Q04DX003 (ip), vehicle: saline): 0 of 6 | survivor count (dose: 100.0 mg/kg/injection, schedule: Q04DX003 (ip), vehicle: saline): 0 of 6 | survivor count (dose: 200.0 mg/kg/injection, schedule: Q04DX003 (ip), vehicle: saline): 0 of 6 | survivor count (dose: 400.0 mg/kg/injection, schedule: Q04DX003 (ip), vehicle: saline): 0 of 6

COS(C)=O (stereo not given)
survivor count (dose: 200.0 mg/kg/injection, schedule: Q01DX009 (ip), vehicle: saline): 1 of 6

C=C1C(=O)O[C@H]2/C=C(/C)C3=CC(=O)[C@@](C)(C[C@@H](OC(=O)/C(C)=C\C)C12)O3 (stereo not given in full)
survivor count [2]: 4 of 6 | survivor count [3]: 1 of 6 | survivor count [4]: 0 of 6 | survivor count [5]: 0 of 6

O=C(Nc1ccc(NC2=NCCN2)cc1)c1ccc(C(=O)Nc2ccc(NC3=NCCN3)cc2)c([N+](=O)[O-])c1
T/C (dose: 3.12 mg/kg/injection, schedule: Q01DX005 (ip), vehicle: Klucel (hydroxypropylcellulose) (HPC)): 130 % of control | T/C (dose: 6.25 mg/kg/injection, schedule: Q01DX005 (ip), vehicle: Klucel (hydroxypropylcellulose) (HPC)): 148 % of control | survivor count [1]: 6 of 6 | survivor count [2]: 5 of 6 | survivor count [3]: 0 of 6 | survivor count [4]: 0 of 6 | survivor count [5]: 0 of 6

COC(=O)C12OCC34C(CC5C(C)C6=CC(=O)OC6=CC5(C)C3C(O)C1O)OC(=O)C(OC(C)=O)C24 (stereo not given)
T/C (dose: 0.06 mg/kg/injection, schedule: Q01DX005 (ip), vehicle: saline + alcohol): 128 % of control | survivor count (dose: 0.13 mg/kg/injection, schedule: Q01DX005 (ip), vehicle: saline + alcohol): 3 of 5 | survivor count (dose: 0.25 mg/kg/injection, schedule: Q01DX005 (ip), vehicle: saline + alcohol): 0 of 5 | T/C [8]: 140 % of control | survivor count [8]: 0 of 5 | survivor count (dose: 1.0 mg/kg/injection, schedule: Q01DX005 (ip), vehicle: saline + alcohol): 0 of 5 and 2 of 5 | survivor count (dose: 2.0 mg/kg/injection, schedule: Q01DX005 (ip), vehicle: saline + alcohol): 1 of 5 | survivor count (dose: 4.0 mg/kg/injection, schedule: Q01DX005 (ip), vehicle: saline + alcohol): 0 of 5 | survivor count (dose: 8.0 mg/kg/injection, schedule: Q01DX005 (ip), vehicle: saline + alcohol): 0 of 5 | T/C (dose: 73.5 mg/kg/injection, schedule: Q01DX005 (ip), vehicle: Klucel (hydroxypropylcellulose) (HPC)): 127 % of control

CCC1CCCCN1Cc1ccccc1 (stereo not given)
survivor count (dose: 240.0 mg/kg/injection, schedule: Q01DX005 (ip), vehicle: Klucel (hydroxypropylcellulose) (HPC)): 3 of 6

Cc1ccc(NCCC2CCCN3CCCCC23)c2c(=O)c3ccccc3sc12 (stereo not given)
survivor count (dose: 50.0 mg/kg/injection, schedule: Q01DX005 (ip), vehicle: distilled water + Tween-80): 6 of 6 | survivor count (dose: 100.0 mg/kg/injection, schedule: Q01DX005 (ip), vehicle: distilled water + Tween-80): 6 of 6 | survivor count (dose: 200.0 mg/kg/injection, schedule: Q01DX005 (ip), vehicle: distilled water + Tween-80): 2 of 6

Cc1ccc2nc(=O)c3cccnc3n2c1
survivor count (dose: 60.0 mg/kg/injection, schedule: Q01DX005 (ip), vehicle: saline): 0 of 6 | survivor count [9]: 0 of 6 | survivor count [10]: 0 of 6

NCCc1ccc(OCc2ccccc2)c(OCc2ccccc2)c1
survivor count (dose: 50.0 mg/kg/injection, schedule: Q01DX009 (ip), vehicle: saline): 0 of 6 | survivor count (dose: 100.0 mg/kg/injection, schedule: Q01DX009 (ip), vehicle: saline): 0 of 6

O=C(NC(Cc1ccccc1)C(=O)O)OCc1ccccc1 (stereo not given)
survivor count (dose: 600.0 mg/kg/injection, schedule: Q01DX009 (ip), vehicle: saline with Tween-80): 0 of 6

COc1cc2c(cc1OC)C(O)C1CCCNC1C2 (stereo not given)
survivor count (dose: 100.0 mg/kg/injection, schedule: Q04DX002 (ip), vehicle: saline): 1 of 6

C=C(N)/C=C1/NC(C)=CS1
survivor count [9]: 1 of 6 | survivor count [10]: 0 of 6

CCOC(=O)c1ccc(N(CC(O)CN)S(=O)(=O)c2ccc(C)cc2)cc1 (stereo not given)
survivor count (dose: 120.0 mg/kg/injection, schedule: Q01DX005 (ip), vehicle: saline with Tween-80): 3 of 6 | survivor count [6]: 0 of 6

O=NNc1ccc(S(=O)(=O)c2ccc(NN=O)cc2)cc1
survivor count (dose: 150.0 mg/kg/injection, schedule: Q01DX009 (ip), vehicle: water): 3 of 6

O=C(O)c1cccc2cccc(-c3c4ccc(=O)c(O)c-4oc4c(O)c(O)ccc34)c12
survivor count (dose: 400.0 mg/kg/injection, schedule: Q01DX009 (ip), vehicle: saline with Tween-80): 4 of 6

C/C(=N\Nc1cc(C)c2ccccc2n1)c1ccccn1
survivor count (dose: 100.0 mg/kg/injection, schedule: Q01DX005 (ip), vehicle: saline with Tween-80): 6 of 6 | survivor count (dose: 200.0 mg/kg/injection, schedule: Q01DX005 (ip), vehicle: saline with Tween-80): 3 of 6

O=C(OC1OC(COCc2ccccc2)C(OCc2ccccc2)C(OCc2ccccc2)C1OCc1ccccc1)c1ccc([N+](=O)[O-])cc1 (stereo not given)
survivor count (dose: 400.0 mg/kg/injection, schedule: Q01DX001 (ip), vehicle: saline with Tween-80): 6 of 6

Cc1cc2c(cc1C)NC(c1ccc(C(N)=S)cc1)N2
survivor count (dose: 400.0 mg/kg/injection, schedule: Q04DX002 (ip), vehicle: saline with Tween-80): 4 of 6

COc1ccc(C(=O)c2cc3c(ccc4ccccc43)oc2=O)cc1
survivor count (dose: 50.0 mg/kg/injection, schedule: Q01DX009 (ip), vehicle: suspension in saline): 6 of 6 | survivor count (dose: 100.0 mg/kg/injection, schedule: Q01DX009 (ip), vehicle: suspension in saline): 5 of 6 | survivor count (dose: 200.0 mg/kg/injection, schedule: Q01DX009 (ip), vehicle: suspension in saline): 6 of 6

COc1cccc2c1C(=O)c1c(O)c3c(c(O)c1C2=O)C[C@@](O)(C(O)O)C[C@@H]3OC1CC(N)C(O)C(C)O1 (stereo not given in full)
T/C (dose: 1.0 mg/kg/injection, schedule: Q01DX009 (ip), vehicle: water): 135 % of control | T/C (dose: 8.0 mg/kg/injection, schedule: Q01DX009 (ip), vehicle: water): 135 % of control | T/C (dose: 12.5 mg/kg/injection, schedule: Q04DX003 (ip), vehicle: water): 131 % of control | survivor count (dose: 16.0 mg/kg/injection, schedule: Q01DX009 (ip), vehicle: water): 3 of 3 | T/C (dose: 25.0 mg/kg/injection, schedule: Q04DX003 (ip), vehicle: water, evaluated on day 30): 140 % of control | T/C (dose: 25.0 mg/kg/injection, schedule: Q04DX003 (ip), vehicle: water, evaluated on day 45): 127 % of control
